This note sets out measurements from PMC10558657.

Amino acid sequences for entries named in this document (tags omitted).
UniProt Q86WV6: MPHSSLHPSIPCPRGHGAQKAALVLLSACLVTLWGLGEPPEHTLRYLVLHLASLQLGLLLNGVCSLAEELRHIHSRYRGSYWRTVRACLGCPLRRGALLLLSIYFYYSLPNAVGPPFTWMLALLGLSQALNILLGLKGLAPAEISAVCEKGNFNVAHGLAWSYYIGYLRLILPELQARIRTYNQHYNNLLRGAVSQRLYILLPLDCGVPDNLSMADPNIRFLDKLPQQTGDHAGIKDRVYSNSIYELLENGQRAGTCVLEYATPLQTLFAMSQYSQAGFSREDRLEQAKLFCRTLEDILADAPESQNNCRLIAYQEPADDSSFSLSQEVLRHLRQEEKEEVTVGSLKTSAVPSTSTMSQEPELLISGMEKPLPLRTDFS

Numbering of substitutions follows the chain as printed. Like-named read-outs stand apart in the source and are kept apart here. Results are given in words; binding and its absence hold for the method and conditions named. In cells and extracts the contact can be indirect. Some results given as binding are weak or reduced against the parent protein; the word gives no strength. For part of these data: Sequences can lack the tags named with a protein.

Test [1] concerns the target T1, IRHOM2 C476A mutant (human) (UniProt Q6PJF5).
T1 sequence: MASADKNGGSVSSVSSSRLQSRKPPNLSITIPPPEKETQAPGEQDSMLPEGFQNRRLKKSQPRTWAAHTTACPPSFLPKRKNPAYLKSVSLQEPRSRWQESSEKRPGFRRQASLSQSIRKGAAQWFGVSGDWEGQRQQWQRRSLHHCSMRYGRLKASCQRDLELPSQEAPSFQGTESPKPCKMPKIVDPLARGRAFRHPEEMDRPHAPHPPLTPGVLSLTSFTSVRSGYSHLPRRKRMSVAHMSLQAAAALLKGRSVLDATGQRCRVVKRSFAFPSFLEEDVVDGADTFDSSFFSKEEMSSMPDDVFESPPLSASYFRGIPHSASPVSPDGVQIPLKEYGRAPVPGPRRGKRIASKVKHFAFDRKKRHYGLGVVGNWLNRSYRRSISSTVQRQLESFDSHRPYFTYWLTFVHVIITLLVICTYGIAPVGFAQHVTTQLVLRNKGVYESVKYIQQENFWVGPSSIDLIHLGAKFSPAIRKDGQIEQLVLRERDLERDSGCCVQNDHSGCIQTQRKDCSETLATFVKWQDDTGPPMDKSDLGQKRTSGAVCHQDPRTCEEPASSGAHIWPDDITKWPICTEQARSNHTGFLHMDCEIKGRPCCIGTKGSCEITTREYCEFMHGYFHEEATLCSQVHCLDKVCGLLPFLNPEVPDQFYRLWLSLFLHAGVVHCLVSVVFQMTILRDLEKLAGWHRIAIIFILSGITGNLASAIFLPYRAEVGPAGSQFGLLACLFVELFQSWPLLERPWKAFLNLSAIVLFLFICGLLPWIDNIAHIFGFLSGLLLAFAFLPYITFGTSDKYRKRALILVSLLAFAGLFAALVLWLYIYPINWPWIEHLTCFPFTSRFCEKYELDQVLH
Put plainly: co-IP; Co-IP of IRHOM2 (WT or C476A) from THLE2 cells, blots for partner proteins; with or without ZDHHC3, 2-BP, ZDHHC3 knockout or ZDHHC3 C157A.

In the next test the target is T2, Flag-IRHOM2 (human) (UniProt Q6PJF5).
T2 sequence: T1 sequence with A476C
Briefly: co-IP; THLE2 cells transfected with Flag- and HA-tagged IRHOM2 and ZDHHC3 (whole or truncated); blots with anti-HA or anti-Flag.

For the next test, the target named is T3, HA-IRHOM2 WT (human) (UniProt Q6PJF5).
T3 sequence: T1 sequence with A476C
The test is described as above.

Test [2] addresses T4, IRHOM2 (WT) precipitated from THLE2 cells (human) (UniProt Q6PJF5).
T4 sequence: T1 sequence with A476C
Briefly: co-IP; Co-IP of IRHOM2 (WT or C476A) from THLE2 cells, blots for partner proteins; with or without ZDHHC3, 2-BP, ZDHHC3 knockout or ZDHHC3 C157A.

The target of test [3] is T1, IRHOM2 C476A mutant (human). The description is as above. This is another data set of the same source.

STING (from UniProt Q86WV6 1-379): in test [1], the binding entry was “binds”.

B1: HA-ZDHHC3 (enzyme, UniProt Q9NYG2 1-299)
chain: MMLIPTHHFRNIERKPEYLQPEKCVPPPYPGPVGTMWFIRDGCGIACAIVTWFLVLYAEFVVLFVMLIPSRDYVYSIINGIVFNLLAFLALASHCRAMLTDPGAVPKGNATKEFIESLQLKPGQVVYKCPKCCSIKPDRAHHCSVCKRCIRKMDHHCPWVNNCVGENNQKYFVLFTMYIALISLHALIMVGFHFLHCFEEDWTKCSSFSPPTTVILLILLCFEGLLFLIFTSVMFGTQVHSICTDETGIEQLKKEERRWAKKTKWMNMKAVFGHPFSLGWASPFATPDQGKADPYQYVV
Turning to B1, in the test with Flag-IRHOM2 (human), the binding result is given as “binds”.

B2: Flag-ZDHHC3 WT (enzyme, UniProt Q9NYG2 1-299)
chain: B1 chain
For the molecule B2, the binding result with HA-IRHOM2 WT (human) is listed as “binds”.

B3: FRMD8 (protein, UniProt Q9BZ67 1-464)
chain: MDGTEGSAGQPGPAERSHRSSVSSVGARAADVLVYLADDTVVPLAVENLPSLSAHELHRAVREVLQLPDIALDVFALWLVSPLLEVQLKPKHQPYKLGRQWPELLLRFTSAPDDDVAMDEPFLQFRRNVFFPKRRELQIHDEEVLRLLYEEAKGNVLAARYPCDVEDCEALGALVCRVQLGPYQPGRPAACDLREKLDSFLPAHLCKRGQSLFAALRGRGARAGPGEQGLLNAYRQVQEVSSDGGCEAALGTHYRAYLLKCHELPFYGCAFFHGEVDKPAQGFLHRGGRKPVSVAISLEGVHVIDSREKHVLLGLRFQELSWDHTSPEEEEPILWLEFDGDSEGTPVNKLLKIYSKQAELMSSLIEYCIELSQAAEPAGPQDSATGSPSDPSSSLAPVQRPKLRRQGSVVSSRIQHLSTIDYVEDGKGIRRVKPKRTTSFFSRQLSLGQGSYTVVQPGDSLEQG
B3: the binding entry in test [2] and in test [3] was “binds” in each case.

B4: MAP3K7 (enzyme, UniProt O43318 1-606)
chain: MSTASAASSSSSSSAGEMIEAPSQVLNFEEIDYKEIEVEEVVGRGAFGVVCKAKWRAKDVAIKQIESESERKAFIVELRQLSRVNHPNIVKLYGACLNPVCLVMEYAEGGSLYNVLHGAEPLPYYTAAHAMSWCLQCSQGVAYLHSMQPKALIHRDLKPPNLLLVAGGTVLKICDFGTACDIQTHMTNNKGSAAWMAPEVFEGSNYSEKCDVFSWGIILWEVITRRKPFDEIGGPAFRIMWAVHNGTRPPLIKNLPKPIESLMTRCWSKDPSQRPSMEEIVKIMTHLMRYFPGADEPLQYPCQYSDEGQSNSATSTGSFMDIASTNTSNKSDTNMEQVPATNDTIKRLESKLLKNQAKQQSESGRLSLGASRGSSVESLPPTSEGKRMSADMSEIEARIAATTAYSKPKRGHRKTASFGNILDVPEIVISGNGQPRRRSIQDLTVTGTEPGQVSSRSSSPSVRMITTSGPTSEKPTRSHPWTPDDSTDTNGSDNSIPMAYLTLDHQLQPLAPCPNSKESMAVFEQHCKMAQEYMKVQTEIALLLQRKQELVAELDQDEKDQQNTSRLVQEHKKLLDENKSLSTYYQQCKKQLEVIRSQQQKRQGTS
On to B4, for which the binding result in test [2] was “binds”.
